# Some of the results follow. Further columns of the screen follow, without active or inactive calls. Compounds called inactive in the main read-out are mostly missing here. Words in brackets tell the shape of the fitted curve; partial curves, single points and poor fits give uncertain potencies.
# Test: qHTS Assay for Identifying the Cell-Membrane Permeable IMPase Inhibitors
# Details: CHO-M1 cells, IP1 accumulation, HTRF TR-FRET ratio; measured here: donor channel 620 nm AC50
# Description: NCGC IMPase Assay Overview
# Lithium has been widely used for the treatment of bipolar disorder. But lithium has a narrow therapeutic index and it can cause side effects such as thirst, weight gain, tremor, polyuria and memory problems. Although the mechanism for lithium action in treatment of bipolar disorder is still not fully understood, inhibition of inositol monophosphatase (IMPase) and the subsequent depletion of the inositol pool in living cells have been implicated as the primary therapeutic benefit of lithium therapy. Therefore, a selective IMPase inhibitor with reduced side effects might be a good drug candidate to replace lithium for the treatment of bipolar disorder. Several IMPase inhibitors have been discovered previously. However, they are not suitable for therapeutic use because of their poor cell membrane penetrability or oral bioavailability; the development of new cell-permeable IMPase inhibitors is needed.
# IMPase catalyzes the hydrolysis of inositol-1-phosphate (IP1) to release free inositol. Binding of an agonist to a Gq coupled GPCR results in the activation of PLC, which hydrolyzes the PIP2 to form inositol-1,4,5-trisphosphate (IP3) and diacyl glycerol (DAG). While DAG activates protein kinase C (PKC), IP3 triggers the elevation of intracellular free Ca2+. The IP3 is very rapidly inactivated by hydrolysis to IP2, IP1 and then inositol by a series of enzymes including IMPase. Free inositols are used for synthesis of PI and thus start another inositol cycle.
# To identify new cell-permeable IMPase inhibitors, we developed a cell-based IMPase assay in which the cytosolic IP1 is measured by a time-resolved fluorescence resonance energy transfer (TR-FRET) assay. In this assay, an IP1 specific antibody is used to detect the labeled IP1 tracer. When the cell lysate contains the elevated IP1 due to the inhibition of IMPase, the TR-FRET between the labeled antibody and IP1 tracer is disrupted resulting in a reduction in the total signal. Since the TR-FRET is used, this cell-based assay is a homogenous assay without cell wash and medium change that is suitable for assay miniaturization and HTS.
# NCGC IMPase Assay Protocol Summary
# A Chinese hamster ovary (CHO) cell line stably expressing the M1 receptor (CHO-M1) was obtained from ATCC and maintained in F-12 Kaighn's media (Invitrogen, Carlsbad, CA, 21127) supplemented with 10 % FBS, 100 units/ml penicillin, 100 ug/ml streptomycin and 250 ug/ml geneticin at 37C, 5% CO2 in a humidified atmosphere. Before the assay, aliquots of cells were frozen and stored at -135C. The assay was performed in 1536-well format. Data are reported for both the ratio of the two emission wavelengths, and also for the component 'donor' channel, Em2=620. […] AC50 values were determined from concentration-response data modeled with the standard Hill equation.
# IMPase 1536-well assay protocol:
# (1) Plate 4 ul/well (2000 cells) of cell suspension from frozen CHO-M1 Cells in white, tissue culture treated 1536-well plates that are cultured at 37C, 5 % CO2 for 16 to 30 hours.
# (2) Add 23 nl/well of compound in DMSO solution. The final titration for each compound was between 0.6 nM and 46 uM.
# (3) Add 1 ul of carbachol (50 uM in stimulation buffer containing10mM HEPES, 1mM CaCl2, 0.5 mM MgCl2, 4.2 mM KCl, 146 mM NaCl, 5.5 mM glucose, 50mM LiCl, pH 7.4.
# (4) Incubation at 37C, 5 % CO2 for 30 min.
# (5) Add 1 ul/well of d2-conjugated IP1 (d2-IP1) and 1 ul/well of Eu+ cryptate conjugated anti-IP1 antibody (Eu+-Ab) prepared in the cell lysis buffer, both from the IP-One kit (Cisbio, MA).
# (6) Incubate at room temperature for 10 minutes.
# (7) Detect the assay plate (Ex = 320, Em1 =665 and Em2 620) in a ViewLux plate reader.
# inositol monophosphatase, IMPase, IMPase inhibitor, lithium, bipolar disorder, IP-One, HTRF, qHTS, NIH roadmap, NCGC
# Note: In the gene ID and protein GI references for this assay, rat IMPase is referenced instead of hampster as hamster accession numbers were not available.
row,SMILES,AC50
1,Cc1cc(C)c(S(=O)(=O)NCCc2cc3ccc(C)c(C)c3[nH]c2=O)c(C)c1,"14.1 nM [rising, full curve, poor fit]"
2,O=C(Nc1cc(C(F)(F)F)ccc1N1CCCCC1)c1cccc([N+](=O)[O-])c1,"3160 nM [rising, full curve]"
3,CC(=O)C1C(=O)C=C(c2ccco2)CC1c1ccccc1 (stereo not drawn),"35500 nM [falling, single point]"
4,COc1ccc(NC(=O)Cn2c(=O)n(Cc3ccccc3Cl)c(=O)c3cc(OC)c(OC)cc32)cc1,"5620 nM [rising, single point]"
5,CCN(CC)CCN1C(=O)C(=O)/C(=C(/O)c2c(C)[nH]c(C(=O)OC)c2C)C1c1ccco1 (stereo not drawn),"251 nM [falling, full curve, poor fit]"
6,CCOC(=O)C1=C(C)NC2=C(C(=O)CCC2)C1c1ccsc1 (stereo not drawn),"1000 nM [falling, single point]"
7,CCCC(=O)NC(Nc1ccc(S(=O)(=O)Nc2ncccn2)cc1)(C(=O)OCC)C(F)(F)F (stereo not drawn),"1260 nM [falling, full curve, poor fit]"
8,CCCCOc1cccc(-c2nnc(NC(=O)CSc3ccc(C)cc3)s2)c1,"50.1 nM [falling, full curve, poor fit]"
9,COCCCn1cnc2c(c1=O)c1nc3ccccc3nc1n2CCc1ccccc1,"6310 nM [falling, single point]"
10,O=C(Cn1cnc2c(oc3ccccc32)c1=O)N1CCN(c2ccccc2)CC1,"708 nM [falling, partial curve]"
11,CC(C)Cn1c(=O)c2c(c3ccccc31)OC(C)C(=O)N2 (stereo not drawn),"5010 nM [falling, single point]"
12,C=CCn1c(=O)[nH]c2cc(C(=O)N3CCN(c4cccc(Cl)c4)CC3)ccc2c1=O,"2510 nM [falling, partial curve]"
13,O=C(NCCO)c1cccc(S(=O)(=O)N2CCCCC2)c1,"25.1 nM [rising, full curve, poor fit]"
14,CC1=NOC(=O)/C1=C/c1ccc(N(C)C)cc1,"2000 nM [rising, full curve, poor fit]"
15,COCCNC(=O)CSc1nnc2c(Cl)cc(Cl)cn12,"3160 nM [rising, full curve, poor fit]"
16,Cc1ccc(C)c(NC(=O)C(C)N(c2ccccc2)S(C)(=O)=O)c1 (stereo not drawn),"562 nM [falling, full curve, poor fit]"
17,Cc1ccc(S(=O)(=O)NCC(=O)Nc2ccc(C(F)(F)F)cc2)cc1,"794 nM [falling, full curve, poor fit]"

row,SMILES,AC50
1,CC(C)N(c1nnc(N)s1)C(C)C,"31600 nM [falling, single point]"
2,COc1ccccc1NC(=O)CN(C)S(=O)(=O)c1ccc(F)cc1,"35500 nM [rising, single point]"
3,CC1(C)c2ccccc2N2CC(=O)N(CC(N)=O)C21C (stereo not drawn),"50.1 nM [falling, full curve, poor fit]"
4,Cc1cccc(OCc2nnc(SCC(=O)Nc3cc(C)on3)n2C)c1,"5010 nM [falling, full curve, poor fit]"
5,CC(C)c1nc(SCC(=O)N2c3ccccc3CC2C)c2ccccc2n1 (stereo not drawn),"31.6 nM [falling, full curve, poor fit]"
6,COc1ccccc1Nc1nc(-c2sc(NC(=O)C(C)(C)C)nc2C)cs1,"100 nM [rising, full curve, poor fit]"
7,COc1ccc2c(c1)c(CC(=O)O)c(C)n2Cc1ccc(F)cc1,"3.98 nM [falling, full curve, poor fit]"
8,COc1cc2c(cc1NC(=S)Nc1cccc(C)c1)oc1ccccc12,"79.4 nM [falling, full curve, poor fit]"
9,COc1cc2ccc(=O)oc2c(O)c1O,"25100 nM [falling, partial curve]"
10,O=C(Nc1ccccc1Cl)N1CCN(c2ccccn2)CC1,"794 nM [falling, full curve]"
11,Cc1noc(/C=C/N(C)C)c1S(=O)(=O)N1CCCC(C(=O)NC2CCCCC2)C1 (stereo not drawn),"3980 nM [rising, single point]"
12,COc1cc(NC(=S)NC(=O)c2ccc(C)cc2C)ccc1NC(=O)c1cccs1,"12600 nM [rising, partial curve]"
13,Cc1cccc(-c2c3c(=O)n(C)c(=O)n(C)c3c3cnc4ccccc4n23)c1,"5.01 nM [rising, full curve]"
14,COc1ccc2[nH]c3c(=O)n(CCCCC(=O)N4CCC(C(N)=O)CC4)c(=S)[nH]c3c2c1,"5010 nM [rising, single point]"
15,O=C(CCCO)c1ccc2c(c1)OCCO2,"501 nM [falling, full curve, poor fit]"
16,COC(=O)c1ccc(NC(=O)COC(=O)CSc2nc(C)cc(C)n2)cc1,"3160 nM [rising, partial curve]"
